According to patent US7629001B2, “Substrate for volatile delivery systems” (S.C. Johnson & Son, Inc., priority 2003, dated 2009):

Assay: release of straight transfluthrin from loaded substrate heated with an approximately 70° C. heater

CC1(C)[C@H](C=C(Cl)Cl)[C@H]1C(=O)OCc1c(F)c(F)cc(F)c1F [transfluthrin, Transfluthrin]
amount of transfluthrin that comes off the substrate: essentially all
manner of release from the substrate: linear manner
